Data as given in PubChem BioAssay AID686938 (Drosophila RNAi Screening Center, 2013).

- Test: 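Looking for CRAC channel components and the factors controlling them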 (primary screen)
- Cell system: Drosophila S2R+ cells
- Reagents: long dsRNA against Drosophila genes, about 0.25 µg dsRNA per well, roughly 10,000 cells
- Timing: 5 days of knock-down before the calcium assay
- Challenge: thapsigargin (SERCA pump blocker) to empty calcium stores; entry signal taken 4 min after adding it
- Measured: 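Duplicate raw fluo-4 intensities per well from a plate reader, at rest and four minutes after thapsigargin emptied calcium stores; entry-to-rest ratio filled for only some wells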
- Scale: calcium entry signal: higher = stronger calcium signal after store depletion; resting calcium signal: higher = higher resting calcium signal
- Units: calcium entry signal in fluorescence units; resting calcium signal in fluorescence units
- Rule for the call: 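Called when the plate z-score of the entry-to-rest ratio, mean of duplicates, falls below −3; wells with low overall dye signal (Fmax z below −2) or more than five off-targets excluded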
- Meaning of the calls: active = strongly reduced calcium entry; inactive = no strong reduction
The screen tested about 23,000 reagents; this is a random part of those with a known target gene and a result. In the full data, 75 (0.33%) were called active. 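Raw plate signals without normalisation; calls rest on plate z-scores that were not deposited; ratio present for only 364 wells.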 Entries without a mark were called inactive. The record does not give: the dose of the treatment.

beat-Ic (beaten path Ic) [DRSC01524]
- calcium entry signal, replicate 1: 3.67e7
- calcium entry signal, replicate 2: 4.19e7
- resting calcium signal, replicate 1: 2.05e7
- resting calcium signal, replicate 2: 2.00e7

beat-Ic (beaten path Ic) [DRSC03491]
- calcium entry signal, replicate 1: 4.40e7
- calcium entry signal, replicate 2: 3.95e7
- resting calcium signal, replicate 1: 1.93e7
- resting calcium signal, replicate 2: 1.91e7

Ttd14 (TRPL translocation defect 14) [DRSC06632]
- calcium entry signal, replicate 1: 3.71e7
- calcium entry signal, replicate 2: 4.07e7
- resting calcium signal, replicate 1: 1.86e7
- resting calcium signal, replicate 2: 2.19e7

Ttd14 (TRPL translocation defect 14) [DRSC06942]
- calcium entry signal, replicate 1: 5.88e7
- calcium entry signal, replicate 2: 3.88e7
- resting calcium signal, replicate 1: 2.41e7
- resting calcium signal, replicate 2: 2.05e7

CG6978 [DRSC18409]
- calcium entry signal, replicate 1: 5.34e7
- calcium entry signal, replicate 2: 4.06e7
- resting calcium signal, replicate 1: 2.39e7
- resting calcium signal, replicate 2: 1.77e7

CG7900 [DRSC16336]
- calcium entry signal, replicate 1: 4.33e7
- calcium entry signal, replicate 2: 5.74e7
- resting calcium signal, replicate 1: 2.09e7
- resting calcium signal, replicate 2: 2.64e7

CG7900 [DRSC21343]
- calcium entry signal, replicate 1: 2.46e7
- calcium entry signal, replicate 2: 3.44e7
- resting calcium signal, replicate 1: 1.24e7
- resting calcium signal, replicate 2: 1.67e7

bol (boule) [DRSC08964]
- calcium entry signal, replicate 1: 4.94e7
- calcium entry signal, replicate 2: 6.18e7
- resting calcium signal, replicate 1: 2.45e7
- resting calcium signal, replicate 2: 2.65e7

bol (boule) [DRSC10444]
- calcium entry signal, replicate 1: 2.92e7
- calcium entry signal, replicate 2: 4.33e7
- resting calcium signal, replicate 1: 1.55e7
- resting calcium signal, replicate 2: 1.61e7

bol (boule) [DRSC11329]
- calcium entry signal, replicate 1: 3.17e7
- calcium entry signal, replicate 2: 3.04e7
- resting calcium signal, replicate 1: 1.59e7
- resting calcium signal, replicate 2: 1.39e7

Ssk (Snakeskin) [DRSC10756]
- calcium entry signal, replicate 1: 3.03e7
- calcium entry signal, replicate 2: 4.36e7
- resting calcium signal, replicate 1: 1.49e7
- resting calcium signal, replicate 2: 3.13e7

thr (three rows) [DRSC07706]
- calcium entry signal, replicate 1: 2.37e7
- calcium entry signal, replicate 2: 2.27e7
- resting calcium signal, replicate 1: 1.43e7
- resting calcium signal, replicate 2: 1.44e7

CG10286 [DRSC12520]
- calcium entry signal, replicate 1: 3.09e7
- calcium entry signal, replicate 2: 4.41e7
- resting calcium signal, replicate 1: 1.40e7
- resting calcium signal, replicate 2: 1.96e7

CG2533 [DRSC19855]
- calcium entry signal, replicate 1: 3.40e7
- calcium entry signal, replicate 2: 6.95e7
- resting calcium signal, replicate 1: 1.62e7
- resting calcium signal, replicate 2: 2.84e7
